Patent US7261876B2, “Multivalent constructs for therapeutic and diagnostic applications” (Bracco International BV, priority 2002, dated 2007)
Some of these results come from one statement about several compounds together.

Chains of the proteins cited; added tags and fusions are not shown. Residues count along the entry.
UniProt P35968, 20-1356: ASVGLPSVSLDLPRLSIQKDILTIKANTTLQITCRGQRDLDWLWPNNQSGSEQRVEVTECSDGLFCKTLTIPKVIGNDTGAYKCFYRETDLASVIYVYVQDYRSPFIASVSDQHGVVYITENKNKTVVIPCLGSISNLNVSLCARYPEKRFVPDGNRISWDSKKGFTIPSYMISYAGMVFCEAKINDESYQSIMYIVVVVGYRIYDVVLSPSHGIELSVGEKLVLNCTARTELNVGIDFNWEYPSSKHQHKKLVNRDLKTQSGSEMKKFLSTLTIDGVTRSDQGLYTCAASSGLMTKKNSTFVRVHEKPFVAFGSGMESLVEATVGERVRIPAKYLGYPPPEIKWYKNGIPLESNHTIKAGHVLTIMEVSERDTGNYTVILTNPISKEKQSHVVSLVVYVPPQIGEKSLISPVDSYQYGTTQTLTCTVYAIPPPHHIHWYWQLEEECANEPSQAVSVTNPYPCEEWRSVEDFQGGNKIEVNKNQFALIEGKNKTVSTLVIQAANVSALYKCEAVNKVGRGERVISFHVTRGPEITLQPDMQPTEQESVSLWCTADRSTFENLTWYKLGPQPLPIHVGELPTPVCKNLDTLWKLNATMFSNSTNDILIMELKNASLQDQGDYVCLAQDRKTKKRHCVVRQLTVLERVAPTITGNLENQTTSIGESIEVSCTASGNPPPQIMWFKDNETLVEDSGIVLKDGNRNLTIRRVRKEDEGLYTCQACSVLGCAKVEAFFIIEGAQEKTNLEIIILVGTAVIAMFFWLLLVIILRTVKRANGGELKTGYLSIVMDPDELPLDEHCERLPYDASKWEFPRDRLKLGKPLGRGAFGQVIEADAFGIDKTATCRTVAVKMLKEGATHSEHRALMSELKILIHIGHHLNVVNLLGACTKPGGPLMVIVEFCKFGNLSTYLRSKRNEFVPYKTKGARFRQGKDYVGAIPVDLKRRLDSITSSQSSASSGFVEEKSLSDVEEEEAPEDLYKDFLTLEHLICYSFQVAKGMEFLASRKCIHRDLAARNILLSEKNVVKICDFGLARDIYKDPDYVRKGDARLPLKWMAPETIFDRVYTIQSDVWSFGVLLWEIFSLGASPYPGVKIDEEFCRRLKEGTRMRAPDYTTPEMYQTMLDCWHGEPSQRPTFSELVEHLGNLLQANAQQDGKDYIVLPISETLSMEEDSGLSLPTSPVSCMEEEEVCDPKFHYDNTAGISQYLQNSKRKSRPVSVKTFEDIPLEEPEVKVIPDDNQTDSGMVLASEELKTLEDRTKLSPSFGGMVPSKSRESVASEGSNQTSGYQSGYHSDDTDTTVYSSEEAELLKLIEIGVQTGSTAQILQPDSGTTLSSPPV

Target: T1, KDR (Homo sapiens, UniProt P35968)
T1 construct: host or cells: HUVEC
Experiment: VEGF-induced KDR receptor activation (phosphorylation) assay in HUVECs
Type: cell-based
Description: Human umbilical vein endothelial cells (HUVECs) (Biowhittaker Cat No. CC-2519) were obtained frozen on dry ice and stored in liquid nitrogen until thawing. These cells were thawed, passaged, and maintained as described by the manufacturer in EGM-MV medium (Biowhittaker Cat No. CC-3125). Cells seeded into 100 mm dishes were allowed to become confluent, then cultured overnight in basal EBM medium lacking serum (Biowhittaker Cat No. CC-3121). The next morning, the medium in the dishes was replaced with 10 mL fresh EBM medium at 37° C. containing either no additive (negative control), 5 ng/mL VEGF (Calbiochem Cat No. 676472 or Peprotech Cat No. 100-20) (positive control), or 5 ng/mL VEGF plus the indicated concentration of the KDR-binding peptide (prepared as described above). In some cases, a neutralizing anti-KDR antibody (Cat No. AF357, R&D Systems) was used as a positive control inhibitor of activation. In such cases, the antibody was pre-incubated with the test cells for 30 min at 37° C. prior to the addition of fresh medium containing both VEGF and the antibody. After incubating the dishes 5 min in a 37° C. tissue culture incubator they were washed three times with ice-cold Dulbecco's phosphate buffered saline (D-PBS) containing calcium and magnesium and placed on ice without removing the last 10 mL of D-PBS. The first dish of a set was drained and 0.5 mL of Triton lysis buffer was added (20 mM Tris base pH 8.0, 137 mM NaCl, 10% glycerol, 1% Triton X-100, 2 mM EDTA (ethylenediaminetetraacetic acid), 1 mM PMSF (phenylmethylsulfonylfluoride), 1 mM sodium orthovanadate, 100 mM NaF, 50 mM sodium pyrophosphate, 10 μg/mL leupeptin, 10 μg/mL aprotinin). The cells were quickly scraped into the lysis buffer using a cell scraper (Falcon, Cat No. 353087), dispersed by pipeting up and down briefly, and the resulting lysate was transferred to the second drained dish of the pair. Another 0.5 mL of lysis buffer was used to rinse out the first dish then transferred to the second dish, which was then also scraped and dispersed. The pooled lysate from the two dishes was transferred to a 1.5 mL Eppindorf tube. The above procedure was repeated for each of the controls and test samples (KDR-binding peptides), one at a time. The lysates were stored on ice until all the samples had been processed. At this point samples were either stored at −70° C. or processed to the end of the assay without interruption.
The lysates, either freshly prepared or frozen and thawed, were precleared by adding 20 μL of protein A-sepharose beads (Sigma 3391, preswollen in D-PBS), washed three times with a large excess of D-PBS, reconstituted with 6 mL D-PBS to generate a 50% slurry) and rocked at 4° C. for 30 min. The beads were pelleted by centrifugation for 2 min in a Picofuge (Stratgene, Cat No. 400550) at 2000×g and the supernatants transferred to new 1.5 mL tubes. 20 μg of anti-Flk-1 antibody (Santa Cruz Biotechnology, Cat No. sc-504) was added to each tube, and the tubes were incubated overnight (16–18 h) at 4° C. on a rotator to immunoprecipitate KDR. The next day 40 μL of protein A-sepharose beads were added to the tubes, which were then incubated at 4° C. for 1 h on a rotator. The beads in each tube were subsequently washed three times by centrifuging for 2 min in a Picofuge, discarding the supernatant, and dispersing the beads in 1 mL freshly added TBST buffer (20 mM Tris base pH 7.5, 137 mM NaCl, and 0.1% Tween 20). […]

[1] = tetrameric complexes of biotinylated derivatives, 10 nM

Row | Substance | inhibition of VEGF-induced KDR phosphorylation [1] [%] | inhibition of VEGF-induced KDR phosphorylation (10 μM) [%]
1 | Ac-AGPTWC*EDDWYYC*WLFGT-GGGK-(Biotin-JJ-)-NH2 [P12-XB] | ≥ 50 | 
2 | Ac-AQAFPRFGGDDYWIQQYLRYTDGGK-NH2 [P10-D] |  | ≥ 50
3 | Ac-AQEPEGYAYWEVITLYHEEDGDGGK-NH2 [P9-D] |  | ≥ 50
4 | Ac-GDSRVC*WEDSWGGEVC*FRYDPGGGK-(Biotin-JJ-)-NH2 [P6-XB] | ≥ 50 | 
5 | Ac-GDSRVC*WEDSWGGEVC*FRYDPGGGK-NH2 [P6-D] |  | ≥ 50
